Data reported in PMC5216755.
No constants are given. Whether binding was seen depends on the method and setting. In cells and extracts the contact can be indirect. Some binding calls cover weakened binding; strength is not graded here. For some assays here: Tags and fused reporters may be left off the sequences shown.

Chains of the proteins cited; added tags and fusions are not shown.
UniProt O60884: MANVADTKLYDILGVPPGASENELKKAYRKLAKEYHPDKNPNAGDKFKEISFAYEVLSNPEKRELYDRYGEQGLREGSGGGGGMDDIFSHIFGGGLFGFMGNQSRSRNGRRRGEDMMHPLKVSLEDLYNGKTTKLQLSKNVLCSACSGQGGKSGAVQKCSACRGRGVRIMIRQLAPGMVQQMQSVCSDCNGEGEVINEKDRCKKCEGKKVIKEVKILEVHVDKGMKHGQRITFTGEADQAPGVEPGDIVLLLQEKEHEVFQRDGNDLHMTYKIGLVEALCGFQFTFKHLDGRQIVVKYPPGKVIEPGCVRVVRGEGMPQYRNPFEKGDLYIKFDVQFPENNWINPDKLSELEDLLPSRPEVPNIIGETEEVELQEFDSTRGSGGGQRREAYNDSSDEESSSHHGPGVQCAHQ
UniProt Q15208: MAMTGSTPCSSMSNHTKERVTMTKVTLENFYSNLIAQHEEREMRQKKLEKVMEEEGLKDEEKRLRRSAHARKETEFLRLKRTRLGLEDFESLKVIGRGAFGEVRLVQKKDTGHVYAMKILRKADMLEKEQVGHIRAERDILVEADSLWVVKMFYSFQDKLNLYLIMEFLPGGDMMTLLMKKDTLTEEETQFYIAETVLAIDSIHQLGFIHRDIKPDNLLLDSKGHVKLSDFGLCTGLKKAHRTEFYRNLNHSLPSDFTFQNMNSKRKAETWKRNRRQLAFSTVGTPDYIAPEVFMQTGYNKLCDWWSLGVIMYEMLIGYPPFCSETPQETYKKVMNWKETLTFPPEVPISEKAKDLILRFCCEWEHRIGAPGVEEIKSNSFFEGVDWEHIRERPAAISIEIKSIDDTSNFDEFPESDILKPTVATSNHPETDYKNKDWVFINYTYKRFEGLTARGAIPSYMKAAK
UniProt Q9C0K0: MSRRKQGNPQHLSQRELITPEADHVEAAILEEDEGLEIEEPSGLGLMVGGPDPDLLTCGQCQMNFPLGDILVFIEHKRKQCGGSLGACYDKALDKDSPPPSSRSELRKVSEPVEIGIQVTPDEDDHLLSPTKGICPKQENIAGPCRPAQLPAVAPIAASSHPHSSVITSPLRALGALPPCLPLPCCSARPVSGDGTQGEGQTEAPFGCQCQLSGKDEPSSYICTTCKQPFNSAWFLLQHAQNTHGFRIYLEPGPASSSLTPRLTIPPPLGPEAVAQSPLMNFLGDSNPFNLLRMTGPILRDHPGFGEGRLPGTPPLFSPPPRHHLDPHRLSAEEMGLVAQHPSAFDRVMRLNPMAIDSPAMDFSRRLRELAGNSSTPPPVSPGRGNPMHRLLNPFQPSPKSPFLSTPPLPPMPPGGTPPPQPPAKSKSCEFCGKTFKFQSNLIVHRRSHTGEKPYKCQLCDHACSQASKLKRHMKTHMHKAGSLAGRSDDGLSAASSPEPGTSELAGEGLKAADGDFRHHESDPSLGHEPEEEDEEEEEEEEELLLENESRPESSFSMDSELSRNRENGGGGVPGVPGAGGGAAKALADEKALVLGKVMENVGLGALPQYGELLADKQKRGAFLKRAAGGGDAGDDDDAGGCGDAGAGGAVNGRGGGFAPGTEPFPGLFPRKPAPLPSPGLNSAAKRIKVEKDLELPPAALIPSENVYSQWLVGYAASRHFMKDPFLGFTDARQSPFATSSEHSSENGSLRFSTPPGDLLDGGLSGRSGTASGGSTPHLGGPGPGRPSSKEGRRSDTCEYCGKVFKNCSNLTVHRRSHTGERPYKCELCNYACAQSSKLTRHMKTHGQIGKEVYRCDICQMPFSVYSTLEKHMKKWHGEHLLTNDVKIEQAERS
UniProt P35637: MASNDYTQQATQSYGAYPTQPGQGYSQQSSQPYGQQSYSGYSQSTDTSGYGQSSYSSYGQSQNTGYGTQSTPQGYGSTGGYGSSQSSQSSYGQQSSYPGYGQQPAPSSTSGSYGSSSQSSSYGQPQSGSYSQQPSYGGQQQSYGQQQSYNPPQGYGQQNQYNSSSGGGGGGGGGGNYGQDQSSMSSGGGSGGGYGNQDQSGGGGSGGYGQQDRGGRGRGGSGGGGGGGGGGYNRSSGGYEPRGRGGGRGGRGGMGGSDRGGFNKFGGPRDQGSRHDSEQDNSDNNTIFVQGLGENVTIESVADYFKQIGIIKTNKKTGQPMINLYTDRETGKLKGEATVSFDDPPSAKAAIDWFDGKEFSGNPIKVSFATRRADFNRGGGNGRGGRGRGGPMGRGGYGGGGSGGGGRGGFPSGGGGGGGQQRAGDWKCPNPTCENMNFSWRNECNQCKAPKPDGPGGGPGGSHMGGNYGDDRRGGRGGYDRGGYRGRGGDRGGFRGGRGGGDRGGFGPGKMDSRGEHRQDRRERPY
UniProt P52732: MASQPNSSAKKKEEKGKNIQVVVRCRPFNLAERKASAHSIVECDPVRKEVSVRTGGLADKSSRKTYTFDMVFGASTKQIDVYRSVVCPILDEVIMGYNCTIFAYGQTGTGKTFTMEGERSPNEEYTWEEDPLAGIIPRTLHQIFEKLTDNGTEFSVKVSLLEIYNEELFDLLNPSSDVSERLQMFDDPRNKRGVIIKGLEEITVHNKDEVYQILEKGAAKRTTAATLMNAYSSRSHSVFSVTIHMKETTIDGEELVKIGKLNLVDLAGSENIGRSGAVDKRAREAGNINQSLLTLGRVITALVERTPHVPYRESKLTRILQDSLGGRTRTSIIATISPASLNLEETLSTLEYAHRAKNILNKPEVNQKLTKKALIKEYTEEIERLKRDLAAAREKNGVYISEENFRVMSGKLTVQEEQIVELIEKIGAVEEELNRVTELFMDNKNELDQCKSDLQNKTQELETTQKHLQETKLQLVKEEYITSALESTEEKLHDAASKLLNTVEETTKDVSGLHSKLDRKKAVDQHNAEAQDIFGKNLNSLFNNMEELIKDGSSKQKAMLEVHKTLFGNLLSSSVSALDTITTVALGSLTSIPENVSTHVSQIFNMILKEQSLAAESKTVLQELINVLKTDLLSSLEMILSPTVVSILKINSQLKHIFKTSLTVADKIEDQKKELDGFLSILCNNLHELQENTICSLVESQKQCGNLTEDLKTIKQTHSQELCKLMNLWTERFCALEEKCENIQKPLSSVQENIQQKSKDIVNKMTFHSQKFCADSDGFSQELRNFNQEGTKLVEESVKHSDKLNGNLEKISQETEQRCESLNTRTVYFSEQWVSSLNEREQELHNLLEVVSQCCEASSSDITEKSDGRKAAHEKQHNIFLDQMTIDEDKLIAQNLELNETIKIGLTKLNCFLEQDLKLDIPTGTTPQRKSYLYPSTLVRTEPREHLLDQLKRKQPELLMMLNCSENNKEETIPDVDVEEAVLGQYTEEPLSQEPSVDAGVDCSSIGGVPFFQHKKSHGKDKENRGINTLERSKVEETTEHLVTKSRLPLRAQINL
UniProt Q16666: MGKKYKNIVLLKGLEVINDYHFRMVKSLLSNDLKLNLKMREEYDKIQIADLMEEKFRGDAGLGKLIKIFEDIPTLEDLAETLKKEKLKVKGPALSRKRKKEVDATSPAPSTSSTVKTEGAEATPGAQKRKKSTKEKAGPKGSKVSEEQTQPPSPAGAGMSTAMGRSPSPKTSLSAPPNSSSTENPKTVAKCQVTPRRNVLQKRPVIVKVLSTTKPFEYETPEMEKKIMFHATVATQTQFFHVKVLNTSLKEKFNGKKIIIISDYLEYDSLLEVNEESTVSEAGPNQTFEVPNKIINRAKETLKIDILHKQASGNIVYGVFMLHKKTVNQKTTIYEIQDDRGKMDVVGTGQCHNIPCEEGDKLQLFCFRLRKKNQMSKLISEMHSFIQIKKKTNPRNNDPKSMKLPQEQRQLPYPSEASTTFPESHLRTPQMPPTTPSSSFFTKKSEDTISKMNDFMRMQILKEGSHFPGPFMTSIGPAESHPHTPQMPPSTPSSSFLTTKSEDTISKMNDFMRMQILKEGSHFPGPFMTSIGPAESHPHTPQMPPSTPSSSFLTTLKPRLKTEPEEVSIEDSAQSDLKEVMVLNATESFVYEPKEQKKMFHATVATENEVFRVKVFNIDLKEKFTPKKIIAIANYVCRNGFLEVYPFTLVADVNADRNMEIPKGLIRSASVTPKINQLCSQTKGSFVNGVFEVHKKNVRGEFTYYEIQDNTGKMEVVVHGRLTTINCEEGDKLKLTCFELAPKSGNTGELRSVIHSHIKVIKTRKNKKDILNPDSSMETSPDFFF
UniProt P49841: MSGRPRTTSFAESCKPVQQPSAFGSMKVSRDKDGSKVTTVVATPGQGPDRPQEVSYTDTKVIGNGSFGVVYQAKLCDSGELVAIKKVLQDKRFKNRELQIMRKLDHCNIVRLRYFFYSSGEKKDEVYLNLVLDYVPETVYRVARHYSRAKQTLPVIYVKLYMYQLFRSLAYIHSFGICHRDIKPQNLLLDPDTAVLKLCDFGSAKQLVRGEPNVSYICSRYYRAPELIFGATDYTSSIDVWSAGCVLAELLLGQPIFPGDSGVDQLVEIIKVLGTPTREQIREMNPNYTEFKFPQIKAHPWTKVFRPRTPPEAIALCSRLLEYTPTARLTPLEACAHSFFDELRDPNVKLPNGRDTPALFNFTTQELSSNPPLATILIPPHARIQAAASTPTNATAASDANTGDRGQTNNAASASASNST

Assays:
[1] = biological target: T1, His-tagged GFP-KHSRP, transfected in HEK 293T (UniProt Q92945); test: pull-down; HEK 293T co-transfected with F/H-PPP3CA* and a His-tagged partner; His-pulldown on HisPur Cobalt resin overnight at 4°C in TEN buffer (20 mM Tris-HCl pH 7.5, 150 mM NaCl, 5 mM MgCl2, 0.1% NP-40, 10 mM imidazole, 10% glycerol); PPP3CA* detected by blot
T1 sequence: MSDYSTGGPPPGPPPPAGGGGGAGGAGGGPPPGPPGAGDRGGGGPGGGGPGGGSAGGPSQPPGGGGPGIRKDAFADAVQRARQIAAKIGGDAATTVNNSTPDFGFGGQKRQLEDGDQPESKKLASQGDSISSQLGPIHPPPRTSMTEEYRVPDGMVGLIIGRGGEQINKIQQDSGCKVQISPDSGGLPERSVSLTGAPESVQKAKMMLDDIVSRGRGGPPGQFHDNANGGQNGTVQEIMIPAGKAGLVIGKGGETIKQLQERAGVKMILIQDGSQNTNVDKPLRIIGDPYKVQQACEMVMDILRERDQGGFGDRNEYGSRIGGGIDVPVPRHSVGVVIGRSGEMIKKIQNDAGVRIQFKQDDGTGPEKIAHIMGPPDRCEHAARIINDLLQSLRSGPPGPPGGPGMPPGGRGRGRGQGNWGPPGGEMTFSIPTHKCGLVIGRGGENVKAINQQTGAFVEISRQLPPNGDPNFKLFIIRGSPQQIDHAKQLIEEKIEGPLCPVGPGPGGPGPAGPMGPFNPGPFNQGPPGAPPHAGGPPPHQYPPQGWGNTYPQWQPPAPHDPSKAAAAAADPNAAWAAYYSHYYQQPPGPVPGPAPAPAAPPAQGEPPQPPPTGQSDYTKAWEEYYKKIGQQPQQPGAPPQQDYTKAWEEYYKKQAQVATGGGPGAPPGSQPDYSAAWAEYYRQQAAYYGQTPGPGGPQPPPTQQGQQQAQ

[2] = biological target: T2, FLAG-HA-Histidine tagged (F/H-His) PRDX1, transfected in HEK 293T (UniProt Q06830); test: as above
T2 sequence: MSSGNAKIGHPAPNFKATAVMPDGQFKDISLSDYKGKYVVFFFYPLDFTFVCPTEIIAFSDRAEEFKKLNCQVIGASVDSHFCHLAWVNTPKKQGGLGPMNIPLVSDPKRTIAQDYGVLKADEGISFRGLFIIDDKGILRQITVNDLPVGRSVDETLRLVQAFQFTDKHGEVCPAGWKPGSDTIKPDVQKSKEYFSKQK

[3] = biological target: FLAG-HA-Histidine tagged (F/H-His) hnRNPU, transfected in HEK 293T (UniProt Q00839); test: as above
[4] = biological target: FLAG/HA epitope-tagged PPP3CA constitutively active mutant (F/H-PPP3CA*), transfected in HEK 293T cells (human) (UniProt Q08209); test: co-IP; HEK 293T co-transfected with F/H-PPP3CA* and each partner; PPP3CA* immunoprecipitated with anti-FLAG or anti-HA beads overnight at 4°C in CO-IP buffer (50 mM Tris-HCl pH 7.9, 150 mM NaCl, 1 mM EDTA, 0.1% NP-40); partner detected by blot of its tag
[5] = biological target: FLAG/HA epitope-tagged PPP3CA constitutively active mutant (F/H-PPP3CA*), stably expressed in Jurkat cells (human) (UniProt Q08209); test: co-IP; F/H-PPP3CA*-expressing or mock-transduced Jurkat cells; IP anti-FLAG; immunoblot of endogenous partners
[6] = biological target: PPP3CA (endogenous, Jurkat T-ALL cells) (human (endogenous in Jurkat)) (UniProt Q08209); test: co-IP; endogenous PPP3CA immunoprecipitated from Jurkat lysates (RIPA lysis, diluted 1:3 with CO-IP buffer) with a mouse antibody against PPP3CA or irrelevant mouse Ig; basal conditions and after 1 h ionomycin, cyclosporin A or vehicle; immunoblot of endogenous partners

binding [4]	other results	Substance
–	binding [1]: binds; binding [2]: binds; binding [3]: binds	FLAG/HA epitope-tagged PPP3CA constitutively active mutant (F/H-PPP3CA*), transfected in HEK 293T cells (from UniProt Q08209 1-390) (domain or fragment)
binds	–	DNAJA2, V5-detected, transfected in HEK 293T (from UniProt O60884 1-412)
binds	–	FLNa, myc-detected, transfected in HEK 293T (from UniProt P21333 1-2647)
binds	–	STK38, FLAG-detected, transfected in HEK 293T (from UniProt Q15208 1-465)
binds	–	BCL11b, FLAG-detected, transfected in HEK 293T (from UniProt Q9C0K0 1-894)
binds	–	PRMT5, HA-detected, transfected in HEK 293T (from UniProt O14744 1-637)
binds	–	HSPA8, V5-detected, transfected in HEK 293T (from UniProt P11142 1-646)
–	binding [5]: binds	NPM1 (endogenous, Jurkat) (from UniProt P06748 1-294)
binds	–	FUS, V5-detected, transfected in HEK 293T (from UniProt P35637 1-526)
binds	–	KIF-11, HA-detected, transfected in HEK 293T (from UniProt P52732 1-1056)
binds	–	IFI-16, FLAG-detected, transfected in HEK 293T (from UniProt Q16666 1-785)
–	binding [6]: binds; binding [5]: binds	GSK3β (endogenous, Jurkat) (from UniProt P49841 1-420)
binds	–	NPM1, FLAG-detected, transfected in HEK 293T (from UniProt P06748 1-294)
–	binding [6]: binds; binding [5]: binds	BCL11b (endogenous, Jurkat) (from UniProt Q9C0K0 1-894)
binds	–	RBBP4, myc-detected, transfected in HEK 293T (from UniProt Q09028 1-425)
binds	–	GSK3β, HA-detected, transfected in HEK 293T (from UniProt P49841 1-420)
